{"source": "PubChem BioAssay AID1508597 (Cure First, 2020)", "screen": "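Knock-downs altering ovarian cancer cell survival with or without PARP inhibitor rucaparib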 (primary screen)", "system": "human ovarian carcinoma lines grown from tumours: OCI-P5x (papillary serous) and OCI-C5x (clear cell)", "reagent": "siRNA pool against human genes, 1.25 pmol siRNA per well", "duration": "72 h or 96 h, depending on the cell culture", "challenge": "rucaparib 20 µM (about IC30) or vehicle, present until read-out", "rucaparib or vehicle": "Rucaparib", "cell line": "OCI-P5x (serous)", "measured": "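ATP luminescence measured at 72 or 96 h according to the culture, then normalised and expressed as percent viability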", "direction": "viability, normalised: higher = more viable cells remaining", "hit rule": "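Active when normalised viability falls below 80 percent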", "meaning of the calls": "active = viability under 80%; inactive = viability 80% or more", "note": "This is a random part of the about 2,100 reagents, in one setting of the screen. 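Calls flag viability under 80% in either arm, not effects specific to rucaparib; the reference for percent is not stated.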 Unmarked entries are inactive. Not stated in the record: the 100% reference."}
{"gene": "AFF3 (GeneID 3899)", "technical replicate": "1", "viability, normalised (%)": "74.6 (active)"}
{"gene": "AFF3 (GeneID 3899)", "technical replicate": "2", "viability, normalised (%)": "70.7 (active)"}
{"gene": "AFF3 (GeneID 3899)", "technical replicate": "3", "viability, normalised (%)": "65.4 (active)"}
{"gene": "FGF19 (GeneID 9965)", "technical replicate": "1", "viability, normalised (%)": "47 (active)"}
{"gene": "FGF19 (GeneID 9965)", "technical replicate": "2", "viability, normalised (%)": "59.6 (active)"}
{"gene": "FGF19 (GeneID 9965)", "technical replicate": "3", "viability, normalised (%)": "61.5 (active)"}
{"gene": "MAP3K20 (GeneID 51776)", "technical replicate": "1", "viability, normalised (%)": 80.5}
{"gene": "MAP3K20 (GeneID 51776)", "technical replicate": "2", "viability, normalised (%)": "67.1 (active)"}
{"gene": "MAP3K20 (GeneID 51776)", "technical replicate": "3", "viability, normalised (%)": "75.5 (active)"}
{"gene": "PI4K2B (GeneID 55300)", "technical replicate": "1", "viability, normalised (%)": "78 (active)"}
{"gene": "PI4K2B (GeneID 55300)", "technical replicate": "2", "viability, normalised (%)": 89.8}
{"gene": "PI4K2B (GeneID 55300)", "technical replicate": "3", "viability, normalised (%)": "66.3 (active)"}
{"gene": "PFKFB4 (GeneID 5210)", "technical replicate": "1", "viability, normalised (%)": 90.3}
{"gene": "PFKFB4 (GeneID 5210)", "technical replicate": "2", "viability, normalised (%)": "75.7 (active)"}
{"gene": "PFKFB4 (GeneID 5210)", "technical replicate": "3", "viability, normalised (%)": 80.6}
{"gene": "DHX57 (GeneID 90957)", "technical replicate": "1", "viability, normalised (%)": 80.8}
{"gene": "DHX57 (GeneID 90957)", "technical replicate": "2", "viability, normalised (%)": 93.1}
{"gene": "DHX57 (GeneID 90957)", "technical replicate": "3", "viability, normalised (%)": "75.4 (active)"}
{"gene": "ARRB1 (GeneID 408)", "technical replicate": "1", "viability, normalised (%)": 90.1}
{"gene": "ARRB1 (GeneID 408)", "technical replicate": "2", "viability, normalised (%)": 92.1}
{"gene": "ARRB1 (GeneID 408)", "technical replicate": "3", "viability, normalised (%)": 101}
{"gene": "CCK (GeneID 885)", "technical replicate": "1", "viability, normalised (%)": "71.4 (active)"}
{"gene": "CCK (GeneID 885)", "technical replicate": "2", "viability, normalised (%)": "75.4 (active)"}
{"gene": "CCK (GeneID 885)", "technical replicate": "3", "viability, normalised (%)": "23.3 (active)"}
{"gene": "MKNK1 (GeneID 8569)", "technical replicate": "1", "viability, normalised (%)": 111}
{"gene": "MKNK1 (GeneID 8569)", "technical replicate": "2", "viability, normalised (%)": 95.4}
{"gene": "MKNK1 (GeneID 8569)", "technical replicate": "3", "viability, normalised (%)": 93.3}
{"gene": "CHMP2B (GeneID 25978)", "technical replicate": "1", "viability, normalised (%)": "74.6 (active)"}
{"gene": "CHMP2B (GeneID 25978)", "technical replicate": "2", "viability, normalised (%)": 87.5}
{"gene": "CHMP2B (GeneID 25978)", "technical replicate": "3", "viability, normalised (%)": "74.7 (active)"}
{"gene": "COQ8B (GeneID 79934)", "technical replicate": "1", "viability, normalised (%)": 104}
{"gene": "COQ8B (GeneID 79934)", "technical replicate": "2", "viability, normalised (%)": "62.1 (active)"}
{"gene": "COQ8B (GeneID 79934)", "technical replicate": "3", "viability, normalised (%)": 96.1}

5 entries from above in another layout.
| gene | technical replicate | viability, normalised (%) |
| --- | --- | --- |
| PI4K2B (GeneID 55300) | 2 | 89.8 |
| PI4K2B (GeneID 55300) | 3 | 66.3 (active) |
| PFKFB4 (GeneID 5210) | 1 | 90.3 |
| PFKFB4 (GeneID 5210) | 2 | 75.7 (active) |
| PFKFB4 (GeneID 5210) | 3 | 80.6 |
